Test results published in PubChem BioAssay AID540256 (National Center for Advancing Translational Sciences (NCATS), 2011).
The campaign covered roughly 300,000 compounds. About 3,700 (1.2%) were called active. The inconclusive results got no clear call from the source; some entries with a clear call stand among them for comparison. Calls follow the shape of the full dose curve; tested in HEK293 cells. Where the call is inconclusive, the potency comes from a doubtful curve fit.

Assay: qHTS for Inhibitors of binding or entry into cells for Lassa Virus; also: nearly all actives have a fitted effect of over 50% in size
Settings: Lassa virus pseudotype entry inhibition, cell reporter; series mostly up to 37.9 µM
Potency is read from the fitted curve at half-maximal effect.

Row | Structure (SMILES) | Potency
1 | N/C(=N\N=C\c1ccc2c(c1)OCO2)c1nonc1N | inconclusive: 5.8 µM [inhibitor, partial curve, poor fit]
2 | O=C(NCc1ccco1)/C(=C/c1cccc(C(F)(F)F)c1)c1nc2ccccc2[nH]1 | inconclusive: 8.91 µM [inhibitor, partial curve, poor fit]
3 | CN(C)c1ccc(/C=C2\NC(=S)N(Cc3ccccc3)C2=O)cc1 | inconclusive: 11.2 µM [inhibitor, partial curve, poor fit]
4 | CCOC(=O)C1CCN(C(=O)COc2ccc(S(=O)(=O)N3CCOCC3)cc2)CC1 | inconclusive: 1.26 µM [activator, single point]
5 | CC(C)CCNC(=O)CCc1nnc(COc2ccccc2)o1 | inactive
6 | O=c1c2ccccc2ncn1/N=C/c1ccccc1 | inconclusive: 2.24 µM [inhibitor, single point]
7 | CCOc1ccc(OCc2ccc(C(=O)N3CCc4ccccc4C3)o2)cc1 | inconclusive: 14.6 µM [inhibitor, partial curve]
8 | CC(C)CN1C(=O)/C(=C(/C#N)C(=O)NC2CCCCC2)c2ccccc21 | inconclusive: 22.4 µM [inhibitor, single point]
9 | NS(=O)(=O)c1ccc(N/N=C/C=C/c2ccccc2[N+](=O)[O-])cc1 | inconclusive: 35.5 µM [inhibitor, single point]
10 | CC(C)(C)SCCNC(=O)Nc1ccccc1 | inconclusive: 35.5 µM [inhibitor, single point]
11 | Cc1cc2c(cc1Cl)N(C(=O)Nc1ccc(Oc3cccnc3C)nc1)CC2 | active: 11.6 µM
12 | Cc1ccc(OCCSc2nnc(-c3cccs3)o2)cc1 | inactive
13 | Cc1ccccc1C(=O)c1c[nH]c(C(=O)NCc2ccco2)c1 | inconclusive: 14.1 µM [inhibitor, partial curve, poor fit]
14 | CC(=O)c1cccc(NC(=O)NCc2ccco2)c1 | inactive
15 | CC(C)=NNc1nc(-c2ccc([N+](=O)[O-])cc2)cs1 | inactive
16 | CCOc1ccc(CCNC(=O)c2cc(C)nn2-c2ccccc2)cc1 | inconclusive: 5.01 µM [inhibitor, full curve]
17 | CCC(CC)NCC(O)COc1ccc(Br)cc1 (configuration not stated) | inconclusive: 7.08 µM [inhibitor, full curve, poor fit]
18 | COc1ccc(Cn2c(=O)c3oc4ccccc4c3n(CC(=O)Nc3c(C)cccc3C)c2=O)cc1 | inactive
19 | COc1ccc(/C=N/NC(=S)Nc2ccccc2)cc1COc1ccccc1F | inconclusive: 8.2 µM [inhibitor, partial curve, poor fit]
20 | CCSc1nc(N2CCCCC2)c2c(c1C#N)CCCC2 | inconclusive: 35.5 µM [inhibitor, partial curve, poor fit]
21 | COc1cc(C(=O)NCCCNc2nc3cc(C)c(C)cc3cc2C#N)cc(OC)c1OC | inconclusive: 11.2 µM [inhibitor, single point]

Another view of some results above.
CC(C)CN1C(=O)/C(=C(/C#N)C(=O)NC2CCCCC2)c2ccccc21
  Potency: inconclusive: 22.4 µM [inhibitor, single point]
COc1ccc(/C=N/NC(=S)Nc2ccccc2)cc1COc1ccccc1F
  Potency: inconclusive: 8.2 µM [inhibitor, partial curve, poor fit]

(listing goes on)

Row | Structure (SMILES) | Potency
22 | CN(C)CCCN(C(=O)c1ccc2c(c1)CCCC2)c1nc2ccc(Cl)cc2s1 | inconclusive: 17.8 µM [inhibitor, single point]
23 | CCc1nnc(NC(=O)CSc2nnc(-c3ccccc3O)n2-c2ccc(C)cc2C)s1 | inconclusive: 2.51 µM [inhibitor, full curve]
24 | CCCCNC(=O)Cn1cnc2c(cnn2-c2ccc(C)c(C)c2)c1=O | inconclusive: 2.31 µM [inhibitor, full curve, poor fit]
25 | CCC1CCc2c(sc(NC(=O)c3ccco3)c2C(N)=O)C1 (configuration not stated) | inconclusive: 29.1 µM [activator, partial curve, poor fit]
26 | COc1ccc(NC(=O)C(C)N(C)Cc2ccc3ccccc3c2)cc1 (configuration not stated) | inconclusive: 35.5 µM [inhibitor, single point]
27 | COc1ccc(OC)c(NC(=O)c2ccc(CN(c3cc(Cl)ccc3C)S(=O)(=O)c3ccccc3)cc2)c1 | inactive
28 | CCc1cc2ccccc2nc1SCC(=O)Nc1cc(C)on1 | inconclusive: 35.5 µM [inhibitor, single point]
29 | COc1cc(C(=O)N/N=C/c2sccc2C)cc(OC)c1OC | inconclusive: 22.4 µM [inhibitor, partial curve, poor fit]
30 | Cc1ccc(-n2ncc(C(=O)NCc3ccc4c(c3)OCO4)c2C2CCN(C(=O)OC(C)(C)C)CC2)c(C)c1 | inconclusive: 3.55 µM [inhibitor, full curve, poor fit]
31 | CCCc1cc(=O)n2[nH]c(NCc3cccs3)nc2n1 | inconclusive: 4.11 µM [activator, full curve, poor fit]
32 | O=C(/C=C/c1ccc(Cl)c(Cl)c1)N1CCOCC1 | inactive
33 | C=CCN(CC=C)Cc1cc(=O)oc2ccc3ccccc3c12 | inconclusive: 31.5 µM [inhibitor, single point]
34 | CC(=O)c1ccc(S(=O)(=O)NC(=O)NC2CCCCC2)cc1 | inconclusive: 18.3 µM [activator, partial curve, poor fit]
35 | COc1ccc2c(c1)c(C(=O)N/N=C/c1cccc(Br)c1)c(C)n2C | inactive
36 | O=C(N/N=C/c1c[nH]c2ccccc12)c1ccn(Cc2ccc(Cl)cc2)n1 | inconclusive: 20 µM [inhibitor, partial curve, poor fit]
37 | COc1ccc(C=CC(=O)c2ccc(OC)c(OC)c2O)cc1OC | inconclusive: 10 µM [inhibitor, partial curve, poor fit]
38 | Cc1ccc(S(=O)(=O)Nc2nc3n(n2)C(c2ccc(Cl)cc2)CC(=O)N3)cc1 (configuration not stated) | inactive
39 | COc1ccccc1CNC(=O)c1cc(C(C)C)nc2ccccc12 | inconclusive: 35.5 µM [inhibitor, single point]
40 | Cc1ccc(-n2ncc3c(SCc4cccnc4)ncnc32)c(C)c1 | active: 2.82 µM
41 | CC(C)Cn1c(N)c(C(=O)COC(=O)c2cccc(Cl)c2)c(=O)n(C)c1=O | inconclusive: 14.1 µM [inhibitor, partial curve, poor fit]
42 | N#CC1=C(SCc2ccccc2)NC2=C(C(=O)CCC2)C1c1ccc2c(c1)OCO2 (configuration not stated) | inconclusive: 16.4 µM [inhibitor, partial curve]
